This passage reports survivor count and T/C results from PubChem BioAssay AID328 (DTP/NCI, 2004).

This assay has as its system BDF1 mice, P388 leukemia ip, median survival T/C. Briefly: NCI In Vivo Anticancer Drug Screen. Data for tumor model P388 Leukemia (intraperitoneal) in B6D2F1 (BDF1) mice. Particulars: T/C endpoint: median survival time, higher T/C = longer survival. A digest of the protocol: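 Survival ratio, drug arm over vehicle arm, in mice with a transplanted tumour.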
[1] abbreviates: dose: 100.0 mg/kg/injection, schedule: Q01DX009 (ip), vehicle: saline.
[2] abbreviates: dose: 50.0 mg/kg/injection, schedule: Q01DX009 (ip), vehicle: Klucel (hydroxypropylcellulose) (HPC).
[3] abbreviates: dose: 100.0 mg/kg/injection, schedule: Q04DX003 (ip), vehicle: Klucel (hydroxypropylcellulose) (HPC).
[4] abbreviates: dose: 50.0 mg/kg/injection, schedule: Q01DX009 (ip), vehicle: saline with Tween-80.
The mark [5] stands for this setting: dose: 100.0 mg/kg/injection, schedule: Q01DX009 (ip), vehicle: saline with Tween-80.
Where [6] appears, read: dose: 200.0 mg/kg/injection, schedule: Q01DX009 (ip), vehicle: saline with Tween-80.

The list is a part of this screen's results and no random one: it gathers tests that were run many times, whatever their T/C, doses with no T/C, and many T/C values between a quarter and a half above the control. Other doses and runs of a compound stand elsewhere. T/C is the treated group as % of the vehicle group. Some doses have a count of surviving animals in place of a T/C: the source files T/C as zero there, which appears to mark a toxic dose or a test without result, not a measured value. Some survivor counts are full or nearly so, which does not show that the dose was tolerated: the source hardly ever lists a survival T/C far under the control, and the zero likely stands for such cases as well. Survivors were counted at the toxicity check, usually on the fifth day, unless a day is given; later deaths do not show. Schedule codes are those of the source, taken here to give the interval after Q, in days (D) or hours (H), and the number of doses after X. For survival time, the PubChem record calls one and a half times the control and up active, and a quarter to a half above the control has no call in these data; cut-offs in other NCI protocols can differ. Some entries were tested several times; their values stand side by side, smallest first. Some T/C values carry the count of animals alive at the toxicity check (mostly the fifth day); without a count, all were alive then.

As to `Fc1ccc(NC(=S)S)cc1`, the survivor count is listed as 6 of 6 (dose: 6.25 mg/kg/injection, schedule: Q01DX009 (ip), vehicle: saline); 6 of 6 (dose: 12.5 mg/kg/injection, schedule: Q01DX009 (ip), vehicle: saline); 6 of 6 (dose: 25.0 mg/kg/injection, schedule: Q01DX009 (ip), vehicle: saline).

Take `CC/C(=C(\CC)c1ccc(OCCN(CC)CC)cc1)c1ccc(OCCN(CC)CC)cc1`: the survivor count by setting is: (dose: 50.0 mg/kg/injection, schedule: Q01DX010 (ip), vehicle: carboxymethylcellulose (CMC)) 0 of 6; (dose: 100.0 mg/kg/injection, schedule: Q01DX010 (ip), vehicle: carboxymethylcellulose (CMC)) 0 of 6.

Consider `S=P(N1CCOCC1)(N1CC1)N1CC1`, for which the T/C is, setting by setting: (dose: 2.5 mg/kg/injection, schedule: Q01DX010 (ip), vehicle: saline) 125 % of control; (dose: 5.0 mg/kg/injection, schedule: Q01DX010 (ip), vehicle: saline) 136 and 140 % of control; (dose: 10.0 mg/kg/injection, schedule: Q01DX010 (ip), vehicle: saline) 130 and 131 % of control. For the same molecule, the survivor count (dose: 20.0 mg/kg/injection, schedule: Q01DX010 (ip), vehicle: saline) is listed as 6 of 6.

Take `CC(=O)CC(C)=O.CC(=O)CC(C)=O.[Fe]`: the survivor count reads like this: (dose: 35.0 mg/kg/injection, schedule: Q01DX009 (ip), vehicle: saline) 1 of 6; (dose: 55.0 mg/kg/injection, schedule: Q01DX009 (ip), vehicle: saline) 0 of 6; (dose: 55.0 mg/kg/injection, schedule: Q04DX003 (ip), vehicle: saline) 0 of 6; (dose: 80.0 mg/kg/injection, schedule: Q01DX009 (ip), vehicle: saline) 0 of 6; (dose: 80.0 mg/kg/injection, schedule: Q04DX003 (ip), vehicle: saline) 0 of 6.

Regarding `NN(C(=O)c1ccccc1)C1CCCCC1`, for the setting “dose: 100.0 mg/kg/injection, schedule: Q01DX009 (ip), vehicle: alcohol”, the survivor count was 6 of 6.

Consider `c1ccc(CCSc2ncnc3nc[nH]c23)cc1`, for which, under “dose: 250.0 mg/kg/injection, schedule: Q01DX010 (ip), vehicle: saline”, the survivor count is reported as 6 of 6.

As for `CC1(C)N=C(N)N=C(N)N1c1ccc(OCC(=O)N2CCOCC2)cc1`, the T/C under setting [1] was 131 % of control.

Take `CCC[CH2][Sn]([Cl])([CH2]CCC)[S]C(=S)NCCNC(=S)[S][Sn]([Cl])([CH2]CCC)[CH2]CCC`: the T/C (dose: 6.25 mg/kg/injection, schedule: Q01DX009 (ip), vehicle: Klucel (hydroxypropylcellulose) (HPC)) is 140 % of control and the T/C (dose: 6.25 mg/kg/injection, schedule: Q04DX003 (ip), vehicle: Klucel (hydroxypropylcellulose) (HPC)) was 147 % of control. Besides, the survivor count (dose: 25.0 mg/kg/injection, schedule: Q01DX009 (ip), vehicle: Klucel (hydroxypropylcellulose) (HPC)) is 6 of 6; the survivor count (dose: 25.0 mg/kg/injection, schedule: Q04DX003 (ip), vehicle: Klucel (hydroxypropylcellulose) (HPC)) was 4 of 6; the survivor count under setting [2] is listed as 2 of 6; the survivor count (dose: 50.0 mg/kg/injection, schedule: Q04DX003 (ip), vehicle: Klucel (hydroxypropylcellulose) (HPC)) is 0 of 6; the survivor count under setting [3] is listed as 0 of 6.

On to `COC1=NCN=C2SC=C(N)N=C12`, for which the survivor count under setting [1] is recorded as 3 of 6.

With `O=NN(CCBr)C(=O)Nc1ccccc1`, the T/C runs as follows: (dose: 3.0 mg/kg/injection, schedule: Q01DX009 (ip), vehicle: Klucel (hydroxypropylcellulose) (HPC)) 125 % of control; (dose: 4.5 mg/kg/injection, schedule: Q01DX009 (ip), vehicle: Klucel (hydroxypropylcellulose) (HPC)) 145 % of control; (dose: 7.0 mg/kg/injection, schedule: Q01DX009 (ip), vehicle: Klucel (hydroxypropylcellulose) (HPC)) 137 % of control; under setting [2], 140 % of control; under setting [3], 140 % of control. Moreover, the survivor count is listed as 6 of 6 (dose: 100.0 mg/kg/injection, schedule: Q01DX009 (ip), vehicle: Klucel (hydroxypropylcellulose) (HPC)); 6 of 6 (dose: 150.0 mg/kg/injection, schedule: Q04DX003 (ip), vehicle: Klucel (hydroxypropylcellulose) (HPC)); 6 of 6 (dose: 200.0 mg/kg/injection, schedule: Q04DX003 (ip), vehicle: Klucel (hydroxypropylcellulose) (HPC)); 4 of 6 (dose: 400.0 mg/kg/injection, schedule: Q04DX003 (ip), vehicle: Klucel (hydroxypropylcellulose) (HPC)).

As to `CC1(C)COCN1COC1CCCCC1`, the T/C under setting [4] is 139 % of control and the T/C under setting [5] is 138 % of control.

With `C[n+]1ccc(/C=C/c2ccc(Cl)c(Cl)c2)cc1`, the survivor count reads like this: (dose: 6.0 mg/kg/injection, schedule: Q01DX009 (ip), vehicle: Klucel (hydroxypropylcellulose) (HPC)) 5 of 6; (dose: 12.0 mg/kg/injection, schedule: Q04DX003 (ip), vehicle: Klucel (hydroxypropylcellulose) (HPC)) 4 of 6.

With `CSc1nnc(/C=C/c2ccc3c(c2)OCO3)c(=O)n1N`, the survivor count (dose: 400.0 mg/kg/injection, schedule: Q04DX002 (ip), vehicle: saline with Tween-80) is listed as 0 of 6.

For the molecule `O=C/C=C/c1cccc([N+](=O)[O-])c1`, the T/C is, setting by setting: under setting [4], 134 % of control; under setting [5], 130 % of control; under setting [6], 128 [5 of 6 alive] and 134 % of control. Moreover, where the note is “dose: 400.0 mg/kg/injection, schedule: Q01DX009 (ip), vehicle: saline with Tween-80”, the survivor count is listed as 3 of 6.

With `O=C1NC(=O)C(c2ccccc2)(c2ccccc2)N1CCS`, the survivor count (dose: 12.5 mg/kg/injection, schedule: Q04DX003 (ip), vehicle: saline) was 6 of 6; the survivor count (dose: 25.0 mg/kg/injection, schedule: Q04DX003 (ip), vehicle: saline) was 6 of 6; the survivor count (dose: 50.0 mg/kg/injection, schedule: Q01DX009 (ip), vehicle: saline) is recorded as 0 of 6; the survivor count (dose: 50.0 mg/kg/injection, schedule: Q04DX003 (ip), vehicle: saline) is given as 6 of 6; the survivor count (dose: 100.0 mg/kg/injection, schedule: Q04DX003 (ip), vehicle: saline) is 6 of 6; the survivor count (dose: 200.0 mg/kg/injection, schedule: Q04DX003 (ip), vehicle: saline) is given as 6 of 6.

`C=CC(=O)[O][Pb]([CH3])([CH3])[CH3]`: the survivor count reads like this: (dose: 3.0 mg/kg/injection, schedule: Q01DX009 (ip), vehicle: saline) 6 of 6; (dose: 6.0 mg/kg/injection, schedule: Q01DX009 (ip), vehicle: saline) 6 of 6; (dose: 12.0 mg/kg/injection, schedule: Q01DX009 (ip), vehicle: saline) 6 of 6.

For `Cc1ccc(NC(=S)NNC(=S)NNc2ccccc2)cc1C`, the T/C (dose: 400.0 mg/kg/injection, schedule: Q01DX009 (ip), vehicle: Klucel (hydroxypropylcellulose) (HPC)) was 125 % of control.

In the case of `O=C(O)c1onc2ccccc12`, under “dose: 400.0 mg/kg/injection, schedule: Q01DX001 (ip), vehicle: saline with Tween-80”, the survivor count is recorded as 0 of 6.

With `CN(N)c1ccccc1`, the T/C (dose: 25.0 mg/kg/injection, schedule: Q04DX003 (ip), vehicle: saline with Tween-80) was 125 % of control.

With `CCCCCCCCCCCCN1CCCC(O)C1` (stereo not given), the survivor count is given as 0 of 6 under setting [5] and 3 of 6 (dose: 200.0 mg/kg/injection, schedule: Q04DX003 (ip), vehicle: saline with Tween-80).

For `O=C1OC(Cc2ccccc2)(c2ccccc2)c2ccccc21` (stereo not given), the survivor count under setting [6] was 5 of 6.

On to `O=C(CBr)CC(=O)Nc1ccccc1`, for which the survivor count is recorded as 3 of 6 (dose: 25.0 mg/kg/injection, schedule: Q01DX009 (ip), vehicle: saline with Tween-80) and 2 of 6 under setting [4].
